Patent US4161522A (The Regents of the University of California, priority 1978, dated 1979)

Test: Boc solid-phase peptide synthesis; dicyclohexylcarbodiimide
Conditions: whole synthesis, based upon the arginine

Q: With PEPTIDE1{D.S.D.P.R}$$$$V2.0 as the substance, how does the crude yield read?
A: 16%

Some peptides are written in HELM: one residue between dots, names in brackets for other building blocks, links after the first $.
